Earlier results as cited in patent US20220096389A1, “PHARMACEUTICAL COMPOSITIONS OF AMORPHOUS SOLID DISPERSIONS AND METHODS OF PREPARATION THEREOF” (Shenzhen Pharmacin Co., Ltd., priority 2020, published 2022).

Conditions: cited from earlier work

Structure (SMILES): CCn1cc(C(=O)O)c(=O)c2cc(F)c(N3CCN(C)CC3)cc21 [Pefloxacin]
- Measured or Calculated pKas (first value) (first value in cell): 6.21 ± 0.12
- Measured or Calculated pKas (second value) (second value in cell): 7.87 ± 0.10
